# Results as given in paper doi:10.1101/2023.09.17.558134 (bioRxiv, 2023).
# Protein sequences, listed by entry. Tags and fused reporters are not part of them.
# UniProt P0A8T7, whole entry: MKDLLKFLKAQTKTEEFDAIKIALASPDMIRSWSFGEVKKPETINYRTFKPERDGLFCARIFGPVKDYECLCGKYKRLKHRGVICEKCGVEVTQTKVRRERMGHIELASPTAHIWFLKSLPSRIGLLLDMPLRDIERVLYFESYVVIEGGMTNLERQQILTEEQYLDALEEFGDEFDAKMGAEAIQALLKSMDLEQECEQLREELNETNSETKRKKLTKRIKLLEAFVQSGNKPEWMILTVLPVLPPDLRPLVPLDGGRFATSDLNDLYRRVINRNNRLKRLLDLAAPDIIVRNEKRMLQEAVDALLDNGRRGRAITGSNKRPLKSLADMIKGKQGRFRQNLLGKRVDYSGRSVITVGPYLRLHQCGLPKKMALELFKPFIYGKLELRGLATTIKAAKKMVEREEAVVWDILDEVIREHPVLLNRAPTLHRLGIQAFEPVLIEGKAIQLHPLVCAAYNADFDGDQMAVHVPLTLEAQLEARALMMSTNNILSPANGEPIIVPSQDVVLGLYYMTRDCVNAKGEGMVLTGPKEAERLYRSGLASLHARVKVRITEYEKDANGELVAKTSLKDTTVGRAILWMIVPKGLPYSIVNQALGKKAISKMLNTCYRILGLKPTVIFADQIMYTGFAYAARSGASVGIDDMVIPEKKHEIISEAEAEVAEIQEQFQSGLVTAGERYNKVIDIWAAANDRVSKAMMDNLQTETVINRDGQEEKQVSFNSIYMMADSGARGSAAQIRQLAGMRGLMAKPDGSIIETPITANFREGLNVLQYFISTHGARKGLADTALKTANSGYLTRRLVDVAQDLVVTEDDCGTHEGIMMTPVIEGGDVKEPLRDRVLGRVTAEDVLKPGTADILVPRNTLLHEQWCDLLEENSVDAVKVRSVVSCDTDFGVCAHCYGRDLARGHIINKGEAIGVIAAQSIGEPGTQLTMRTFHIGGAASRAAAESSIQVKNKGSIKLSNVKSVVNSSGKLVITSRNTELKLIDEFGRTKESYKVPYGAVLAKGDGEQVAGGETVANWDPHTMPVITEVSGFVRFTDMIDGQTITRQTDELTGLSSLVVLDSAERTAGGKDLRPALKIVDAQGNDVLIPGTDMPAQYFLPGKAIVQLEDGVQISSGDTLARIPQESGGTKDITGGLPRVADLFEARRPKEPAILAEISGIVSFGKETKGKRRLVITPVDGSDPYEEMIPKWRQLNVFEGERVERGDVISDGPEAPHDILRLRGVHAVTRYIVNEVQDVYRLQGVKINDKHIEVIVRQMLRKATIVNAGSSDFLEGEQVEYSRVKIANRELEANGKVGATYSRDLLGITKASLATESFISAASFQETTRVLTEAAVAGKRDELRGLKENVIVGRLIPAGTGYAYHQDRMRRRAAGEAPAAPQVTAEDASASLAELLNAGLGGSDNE
# Results are given in words; binding and its absence hold for the method and conditions named. Binding seen in cells or lysates may run through a third protein. These calls come from enrichment with a bait or labelling near it, and not all partners need be listed.
# B1: sigma factor FecI, endogenous (protein, UniProt P23484 1-173)
# chain: MSDRATTTASLTFESLYGTHHGWLKSWLTRKLQSAFDADDIAQDTFLRVMVSETLSTIRDPRSFLCTIAKRVMVDLFRRNALEKAYLEMLALMPEGGAPSPEERESQLETLQLLDSMLDGLNGKTREAFLLSQLDGLTYSEIAHKLGVSISSVKKYVAKAVEHCLLFRLEYGL
# Target: RNA polymerase β′ subunit (RpoC), chromosomally 3×FLAG-tagged (E. coli) (UniProt P0A8T7)
# Assay: affinity purification with mass spectrometry
binder,measurement,value
B1,binding,binds
